Data from the supplement of paper PMC12067093, “Discovery and optimisation of a covalent ligand for TRIM25 and its application to targeted protein ubiquitination” (Chemical Science, 2025).
The list shows a part of the results.

Chains of the proteins cited; added tags and fusions are not shown. Lines headed by an entry give the natural chain unless they say otherwise; changes in a name come on top.
UniProt Q9NRY4: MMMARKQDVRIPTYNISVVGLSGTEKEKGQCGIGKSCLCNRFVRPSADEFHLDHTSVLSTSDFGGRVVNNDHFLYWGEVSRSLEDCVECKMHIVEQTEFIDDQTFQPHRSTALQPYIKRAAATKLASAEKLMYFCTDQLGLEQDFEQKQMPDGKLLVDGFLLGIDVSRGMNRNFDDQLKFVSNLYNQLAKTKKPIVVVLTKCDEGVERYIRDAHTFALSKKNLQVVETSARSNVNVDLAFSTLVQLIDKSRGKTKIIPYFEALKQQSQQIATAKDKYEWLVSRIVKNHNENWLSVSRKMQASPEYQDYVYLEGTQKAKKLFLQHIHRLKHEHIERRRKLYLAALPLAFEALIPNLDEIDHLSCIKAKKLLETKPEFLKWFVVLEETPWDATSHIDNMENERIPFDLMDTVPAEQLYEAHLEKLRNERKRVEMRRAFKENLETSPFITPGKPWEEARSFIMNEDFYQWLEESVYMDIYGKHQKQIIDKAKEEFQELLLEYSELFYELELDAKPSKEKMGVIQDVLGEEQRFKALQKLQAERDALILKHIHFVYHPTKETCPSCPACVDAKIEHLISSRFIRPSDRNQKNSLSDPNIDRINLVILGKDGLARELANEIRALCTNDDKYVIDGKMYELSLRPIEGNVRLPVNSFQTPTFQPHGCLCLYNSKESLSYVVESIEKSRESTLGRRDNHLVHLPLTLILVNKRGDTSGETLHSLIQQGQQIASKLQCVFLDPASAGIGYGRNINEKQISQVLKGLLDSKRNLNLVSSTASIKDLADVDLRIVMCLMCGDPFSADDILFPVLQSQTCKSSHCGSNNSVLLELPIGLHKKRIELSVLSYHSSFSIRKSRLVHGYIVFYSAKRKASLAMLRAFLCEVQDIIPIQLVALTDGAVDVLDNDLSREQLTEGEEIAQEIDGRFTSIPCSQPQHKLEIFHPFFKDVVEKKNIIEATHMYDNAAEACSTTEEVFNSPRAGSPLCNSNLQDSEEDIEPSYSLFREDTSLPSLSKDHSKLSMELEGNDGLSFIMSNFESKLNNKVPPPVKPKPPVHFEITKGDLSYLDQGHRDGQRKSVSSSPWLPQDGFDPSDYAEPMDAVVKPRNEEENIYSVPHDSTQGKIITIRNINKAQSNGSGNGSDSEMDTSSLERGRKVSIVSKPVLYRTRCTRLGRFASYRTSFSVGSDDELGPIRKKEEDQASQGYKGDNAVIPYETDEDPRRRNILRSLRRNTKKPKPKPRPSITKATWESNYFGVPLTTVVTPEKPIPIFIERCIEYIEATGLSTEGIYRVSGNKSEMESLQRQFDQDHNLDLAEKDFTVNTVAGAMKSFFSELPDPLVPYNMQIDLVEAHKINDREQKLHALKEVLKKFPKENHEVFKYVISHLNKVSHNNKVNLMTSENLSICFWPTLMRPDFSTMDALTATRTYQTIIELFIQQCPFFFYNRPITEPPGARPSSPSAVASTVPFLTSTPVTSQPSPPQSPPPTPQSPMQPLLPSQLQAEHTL
UniProt Q8N6H7: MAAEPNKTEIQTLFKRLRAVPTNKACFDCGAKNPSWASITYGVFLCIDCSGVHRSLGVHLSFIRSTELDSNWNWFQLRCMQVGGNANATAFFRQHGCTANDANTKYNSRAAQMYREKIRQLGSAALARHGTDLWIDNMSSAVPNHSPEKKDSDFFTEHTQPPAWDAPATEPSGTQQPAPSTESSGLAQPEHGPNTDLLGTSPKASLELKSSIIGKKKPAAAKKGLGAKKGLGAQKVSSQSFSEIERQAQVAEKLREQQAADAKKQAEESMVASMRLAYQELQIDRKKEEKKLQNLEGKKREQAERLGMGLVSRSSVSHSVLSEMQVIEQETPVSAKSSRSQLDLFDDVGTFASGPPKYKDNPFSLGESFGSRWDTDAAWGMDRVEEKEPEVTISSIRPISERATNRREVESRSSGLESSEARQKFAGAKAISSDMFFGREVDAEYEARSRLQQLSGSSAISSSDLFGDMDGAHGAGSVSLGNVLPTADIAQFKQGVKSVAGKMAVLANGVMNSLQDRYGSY
UniProt Q8N8R7: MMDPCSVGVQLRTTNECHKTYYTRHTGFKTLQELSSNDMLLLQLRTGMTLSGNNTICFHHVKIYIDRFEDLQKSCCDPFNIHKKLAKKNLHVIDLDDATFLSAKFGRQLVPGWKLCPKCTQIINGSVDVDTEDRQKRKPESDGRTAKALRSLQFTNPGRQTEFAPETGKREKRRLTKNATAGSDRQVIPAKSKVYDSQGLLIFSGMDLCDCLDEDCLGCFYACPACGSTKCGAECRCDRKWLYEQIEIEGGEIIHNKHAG
UniProt P29374: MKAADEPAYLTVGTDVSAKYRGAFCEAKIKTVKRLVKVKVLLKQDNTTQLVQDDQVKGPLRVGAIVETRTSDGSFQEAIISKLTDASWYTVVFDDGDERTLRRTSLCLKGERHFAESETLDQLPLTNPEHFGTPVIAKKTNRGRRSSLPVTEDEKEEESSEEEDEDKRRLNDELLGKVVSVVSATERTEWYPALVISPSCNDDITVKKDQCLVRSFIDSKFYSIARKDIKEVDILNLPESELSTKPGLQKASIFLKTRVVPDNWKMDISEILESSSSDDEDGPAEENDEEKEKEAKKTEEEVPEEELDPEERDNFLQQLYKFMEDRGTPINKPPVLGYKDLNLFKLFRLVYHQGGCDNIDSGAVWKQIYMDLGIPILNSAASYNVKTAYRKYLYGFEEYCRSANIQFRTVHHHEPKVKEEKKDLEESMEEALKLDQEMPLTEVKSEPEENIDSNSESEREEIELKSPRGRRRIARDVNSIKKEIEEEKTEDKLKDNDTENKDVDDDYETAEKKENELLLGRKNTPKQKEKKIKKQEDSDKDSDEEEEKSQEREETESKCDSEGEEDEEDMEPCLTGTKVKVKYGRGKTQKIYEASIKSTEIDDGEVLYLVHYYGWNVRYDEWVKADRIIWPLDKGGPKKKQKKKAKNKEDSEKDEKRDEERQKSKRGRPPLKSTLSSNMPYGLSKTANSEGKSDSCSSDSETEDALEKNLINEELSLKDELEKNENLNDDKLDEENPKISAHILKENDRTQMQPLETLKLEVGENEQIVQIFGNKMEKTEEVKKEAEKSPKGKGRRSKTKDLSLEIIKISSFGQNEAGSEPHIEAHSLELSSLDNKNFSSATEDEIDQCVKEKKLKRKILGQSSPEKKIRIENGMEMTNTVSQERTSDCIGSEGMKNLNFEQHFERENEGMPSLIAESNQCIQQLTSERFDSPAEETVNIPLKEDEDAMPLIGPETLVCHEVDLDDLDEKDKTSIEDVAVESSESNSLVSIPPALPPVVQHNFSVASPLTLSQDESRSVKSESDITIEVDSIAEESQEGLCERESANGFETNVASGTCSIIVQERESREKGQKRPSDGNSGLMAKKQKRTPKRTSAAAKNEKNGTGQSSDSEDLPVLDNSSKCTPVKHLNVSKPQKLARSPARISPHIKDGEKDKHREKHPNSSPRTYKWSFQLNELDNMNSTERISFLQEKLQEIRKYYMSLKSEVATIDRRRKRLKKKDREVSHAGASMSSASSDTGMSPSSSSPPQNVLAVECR
UniProt O15085: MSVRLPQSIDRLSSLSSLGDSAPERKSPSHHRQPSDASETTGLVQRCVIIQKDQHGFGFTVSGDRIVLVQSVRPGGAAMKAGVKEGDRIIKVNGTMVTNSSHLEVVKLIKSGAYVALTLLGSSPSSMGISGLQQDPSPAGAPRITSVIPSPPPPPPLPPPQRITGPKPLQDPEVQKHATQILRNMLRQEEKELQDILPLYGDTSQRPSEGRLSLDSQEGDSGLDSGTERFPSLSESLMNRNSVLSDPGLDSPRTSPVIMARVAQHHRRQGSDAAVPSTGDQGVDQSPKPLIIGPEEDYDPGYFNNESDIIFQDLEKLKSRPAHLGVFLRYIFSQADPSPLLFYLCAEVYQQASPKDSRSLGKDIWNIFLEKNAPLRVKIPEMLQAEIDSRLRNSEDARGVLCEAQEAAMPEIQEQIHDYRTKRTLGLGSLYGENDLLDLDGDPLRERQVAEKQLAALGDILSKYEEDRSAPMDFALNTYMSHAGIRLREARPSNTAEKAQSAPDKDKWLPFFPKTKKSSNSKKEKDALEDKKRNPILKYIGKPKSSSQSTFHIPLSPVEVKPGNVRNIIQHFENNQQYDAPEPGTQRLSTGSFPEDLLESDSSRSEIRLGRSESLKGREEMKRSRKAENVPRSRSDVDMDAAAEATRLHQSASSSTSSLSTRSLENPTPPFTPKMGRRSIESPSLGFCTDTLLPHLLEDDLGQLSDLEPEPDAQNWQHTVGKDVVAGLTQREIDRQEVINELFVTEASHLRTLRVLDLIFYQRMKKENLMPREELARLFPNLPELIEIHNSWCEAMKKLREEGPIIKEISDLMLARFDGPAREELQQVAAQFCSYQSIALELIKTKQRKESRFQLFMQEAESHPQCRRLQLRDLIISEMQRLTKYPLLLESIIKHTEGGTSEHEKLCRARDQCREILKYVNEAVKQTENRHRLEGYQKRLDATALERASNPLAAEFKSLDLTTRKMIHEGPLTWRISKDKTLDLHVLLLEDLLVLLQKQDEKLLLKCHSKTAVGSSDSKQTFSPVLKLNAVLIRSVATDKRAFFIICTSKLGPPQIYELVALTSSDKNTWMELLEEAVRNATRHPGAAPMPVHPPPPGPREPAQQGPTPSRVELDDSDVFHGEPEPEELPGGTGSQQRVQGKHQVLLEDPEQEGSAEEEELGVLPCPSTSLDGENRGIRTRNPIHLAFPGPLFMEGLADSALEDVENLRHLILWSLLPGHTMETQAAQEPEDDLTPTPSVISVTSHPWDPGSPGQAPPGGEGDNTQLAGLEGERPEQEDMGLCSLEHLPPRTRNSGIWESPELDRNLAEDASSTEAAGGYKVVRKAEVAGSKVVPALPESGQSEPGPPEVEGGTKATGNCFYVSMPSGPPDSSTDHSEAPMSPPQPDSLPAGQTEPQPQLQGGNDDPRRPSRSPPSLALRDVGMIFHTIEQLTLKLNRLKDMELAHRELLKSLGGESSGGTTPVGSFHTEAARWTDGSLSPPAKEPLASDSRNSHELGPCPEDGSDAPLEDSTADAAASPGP
UniProt P07741: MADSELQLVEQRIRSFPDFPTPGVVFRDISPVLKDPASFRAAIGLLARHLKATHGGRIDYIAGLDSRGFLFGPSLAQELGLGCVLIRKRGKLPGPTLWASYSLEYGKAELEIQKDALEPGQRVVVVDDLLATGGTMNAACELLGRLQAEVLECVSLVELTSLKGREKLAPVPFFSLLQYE
UniProt Q6ZUM4: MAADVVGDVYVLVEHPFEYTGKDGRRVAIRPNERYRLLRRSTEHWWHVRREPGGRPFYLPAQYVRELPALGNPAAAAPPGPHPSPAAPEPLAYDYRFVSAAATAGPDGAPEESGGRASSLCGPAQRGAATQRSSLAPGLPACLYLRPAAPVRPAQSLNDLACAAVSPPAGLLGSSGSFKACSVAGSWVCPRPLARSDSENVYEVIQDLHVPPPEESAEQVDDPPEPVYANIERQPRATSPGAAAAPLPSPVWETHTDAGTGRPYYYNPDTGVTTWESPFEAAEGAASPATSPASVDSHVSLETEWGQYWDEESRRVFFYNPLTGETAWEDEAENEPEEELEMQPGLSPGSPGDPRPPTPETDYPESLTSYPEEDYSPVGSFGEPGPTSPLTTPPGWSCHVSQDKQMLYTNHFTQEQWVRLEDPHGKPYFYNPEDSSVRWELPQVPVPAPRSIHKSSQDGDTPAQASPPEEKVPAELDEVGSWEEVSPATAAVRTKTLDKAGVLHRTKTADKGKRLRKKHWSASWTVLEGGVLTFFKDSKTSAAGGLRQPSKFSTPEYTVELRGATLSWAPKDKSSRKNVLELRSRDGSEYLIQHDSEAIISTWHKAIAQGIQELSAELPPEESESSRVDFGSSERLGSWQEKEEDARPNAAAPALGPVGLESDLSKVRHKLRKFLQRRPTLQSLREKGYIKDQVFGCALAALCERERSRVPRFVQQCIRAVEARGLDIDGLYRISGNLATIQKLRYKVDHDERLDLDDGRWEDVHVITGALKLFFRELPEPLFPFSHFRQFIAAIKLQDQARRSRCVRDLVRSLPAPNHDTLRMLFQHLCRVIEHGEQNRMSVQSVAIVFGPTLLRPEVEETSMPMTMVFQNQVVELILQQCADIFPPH
UniProt Q9H993: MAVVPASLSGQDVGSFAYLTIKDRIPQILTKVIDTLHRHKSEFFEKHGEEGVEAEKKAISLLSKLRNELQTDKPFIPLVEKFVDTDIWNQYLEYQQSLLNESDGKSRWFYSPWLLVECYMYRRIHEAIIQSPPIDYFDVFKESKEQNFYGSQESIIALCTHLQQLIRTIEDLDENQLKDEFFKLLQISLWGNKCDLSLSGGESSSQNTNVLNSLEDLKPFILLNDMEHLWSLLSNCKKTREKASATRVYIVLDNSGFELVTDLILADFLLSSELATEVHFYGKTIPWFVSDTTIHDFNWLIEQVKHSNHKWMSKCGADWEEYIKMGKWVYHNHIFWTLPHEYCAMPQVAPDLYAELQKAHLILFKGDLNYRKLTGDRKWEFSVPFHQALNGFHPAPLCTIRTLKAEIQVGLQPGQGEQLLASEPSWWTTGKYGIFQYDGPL

Compound: Cc1cc(ccc1-c1ccccc1)C(=O)N1CCCN(CC1)C(=O)CCl [compound 10]
Assay: probe-labelled cysteine peptide fold change vs DMSO (competition) (log2 fold change); higher = less target engagement (more negative = stronger competition)
Settings: 10 µM; THP-1; incubation time: 4 h
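Also: competitive profiling in live THP-1 cells: cysteine peptides tagged with an iodoacetamide desthiobiotin (IA-DTB) probe, intensity after compound treatment relative to DMSO-treated cells.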

Row | Target | probe-labelled cysteine peptide fold change
1 | ARID2_Q68CP9_382_GMEILGNLCK (UniProt Q68CP9) | 0.216
2 | ARPC1B_O15143_26_DRTQIAICPNNHEVHIYEK (UniProt O15143) | 0.0263
3 | AQR_O60306_250_VHYCER (UniProt O60306) | 0.122
4 | ARHGAP25_P42331_292_DNYSLLSYICR (UniProt P42331) | 0.0762
5 | ARPC1B_O15143_26_TQIAICPNNHEVHIYEK (UniProt O15143) | 0.0629
6 | ARHGAP45_Q92619_747_CLETLAIQCGHK (UniProt Q92619) | -0.0524
7 | ARMC6_Q6NXE6_297_AFLDNPGILSELCGTLSR (UniProt Q6NXE6) | 0.144
8 | ARIH1_Q9Y4X5_362_DGGCNHMVCR (UniProt Q9Y4X5) | 0.0883
9 | ARHGAP44_Q17R89_193_ADALREEMEEAANRVEICR (UniProt Q17R89) | -0.0472
10 | ARHGAP35_Q9NRY4_89_SLEDCVECK (UniProt Q9NRY4) | 0.0619
11 | APPL1_Q9UKG1_328_GDVAGGLAMDIDNCSVMAVDCEDRR (UniProt Q9UKG1) | -0.305
12 | ARHGEF2_Q92974_478_KLIHDGCLLWK (UniProt Q92974) | -0.0509
13 | ARHGAP30_Q7Z6I6_1021_RTQTCTEGGDYCLIPR (UniProt Q7Z6I6) | 0.00592
14 | ARAP1_Q96P48_376_FISVACISHVAAIGDQKFEVITNNR (UniProt Q96P48) | 0.28
15 | ARFGAP2_Q8N6H7_97_QHGCTANDANTK (UniProt Q8N6H7) | -0.0453
16 | ARID4B_Q4LE39_420_ECENVK (UniProt Q4LE39) | -0.169
17 | ARPC5_O15511_45_FVDEEDGGDGQAGPDEGEVDSCLR (UniProt O15511) | 0.177
18 | ARHGAP26_Q9UNA1_142_YCGILEK (UniProt Q9UNA1) | -0.128
19 | ARNT_P27540_269_CGSSSVDPVSVNR (UniProt P27540) | -0.375
20 | ARHGAP4_P98171_102_EPSLLSPLHCWAVLLQHTR (UniProt P98171) | 0.0464

Row | Target | probe-labelled cysteine peptide fold change
21 | ARL14EP_Q8N8R7_75_SCCDPFNIHKK (UniProt Q8N8R7) | -0.094
22 | ARIH2_O95376_183_DGVGVGVSCMAQDCPLR (UniProt O95376) | -0.11
23 | ARHGEF18_Q6ZSZ5_105_LSLDASAVDEEPCLPR (UniProt Q6ZSZ5) | -0.0848
24 | ARID4A_P29374_356_LVYHQGGCDNIDSGAVWK (UniProt P29374) | -0.0193
25 | ARHGEF11_O15085_866_FQLFMQEAESHPQCR (UniProt O15085) | 0.00238
26 | ARHGAP19_Q14CB8_359_VDSCPHQEETQHHTEEALR (UniProt Q14CB8) | 0.175
27 | ARID2_Q68CP9_1634_KPGQNFMCLWQSCK (UniProt Q68CP9) | -0.123
28 | ARPC1A_Q92747_13_SLHQFLLEPITCHAWNR (UniProt Q92747) | 0.253
29 | ARHGEF2_Q92974_282_TGMLEELHLEPGVVQGLFPCVDELSDIHTR (UniProt Q92974) | -0.113
30 | ARID1A_O14497_2043_EEEQDQGVSCNK (UniProt O14497) | 0.579
31 | APRT_P07741_153_LQAEVLECVSLVELTSLK (UniProt P07741) | 0.175
32 | ARHGAP30_Q7Z6I6_654_QALGQGGEEQACWEVGEDK (UniProt Q7Z6I6) | -0.272
33 | ARHGAP27_Q6ZUM4_830_MLFQHLCR (UniProt Q6ZUM4) | 0.0553
34 | ARHGEF10_O15013_1335_ASSALVVCGGQGHR (UniProt O15013) | -0.217
35 | ARPC3_O15145_162_WWTCFVK (UniProt O15145) | -0.0423
36 | ARHGEF7_Q14155_349_VGGCFLNLMPQMK (UniProt Q14155) | 0.449
37 | ARHGAP35_Q9NRY4_663_LPVNSFQTPTFQPHGCLCLYNSK (UniProt Q9NRY4) | 0.0344
38 | APPL1_Q9UKG1_616_ICDSVGLAK (UniProt Q9UKG1) | 0.0218
39 | ARPC1B_O15143_342_CSQFCTTGMDGGMSIWDVK (UniProt O15143) | 0.0381
40 | ARMT1_Q9H993_159_EQNFYGSQESIIALCTHLQQLIR (UniProt Q9H993) | 0.236

Same assay, conditions: 50 µM; THP-1; incubation time: 4 h

Row | Target | probe-labelled cysteine peptide fold change
41 | ARID2_Q68CP9_382_GMEILGNLCK (UniProt Q68CP9) | 0.153
42 | ARPC1B_O15143_26_DRTQIAICPNNHEVHIYEK (UniProt O15143) | -0.124
43 | AQR_O60306_250_VHYCER (UniProt O60306) | 0.347
44 | ARHGAP25_P42331_292_DNYSLLSYICR (UniProt P42331) | -0.065
45 | ARPC1B_O15143_26_TQIAICPNNHEVHIYEK (UniProt O15143) | -0.0227
46 | ARHGAP45_Q92619_747_CLETLAIQCGHK (UniProt Q92619) | -0.154
47 | ARMC6_Q6NXE6_297_AFLDNPGILSELCGTLSR (UniProt Q6NXE6) | -0.237
48 | ARIH1_Q9Y4X5_362_DGGCNHMVCR (UniProt Q9Y4X5) | -0.0719
49 | ARHGAP44_Q17R89_193_ADALREEMEEAANRVEICR (UniProt Q17R89) | -0.212
50 | ARHGAP35_Q9NRY4_89_SLEDCVECK (UniProt Q9NRY4) | -0.171
51 | APPL1_Q9UKG1_328_GDVAGGLAMDIDNCSVMAVDCEDRR (UniProt Q9UKG1) | 0.0273
52 | ARHGEF2_Q92974_478_KLIHDGCLLWK (UniProt Q92974) | -0.328
53 | ARAP1_Q96P48_376_FISVACISHVAAIGDQKFEVITNNR (UniProt Q96P48) | -0.397
54 | ARFGAP2_Q8N6H7_97_QHGCTANDANTK (UniProt Q8N6H7) | -0.0512
55 | ARID4B_Q4LE39_420_ECENVK (UniProt Q4LE39) | -0.17
56 | ARPC5_O15511_45_FVDEEDGGDGQAGPDEGEVDSCLR (UniProt O15511) | 0.233
57 | ARHGAP26_Q9UNA1_142_YCGILEK (UniProt Q9UNA1) | -0.125
58 | ARNT_P27540_269_CGSSSVDPVSVNR (UniProt P27540) | -0.756
59 | ARHGAP4_P98171_102_EPSLLSPLHCWAVLLQHTR (UniProt P98171) | 0.0559

Row | Target | probe-labelled cysteine peptide fold change
60 | ARL14EP_Q8N8R7_75_SCCDPFNIHKK (UniProt Q8N8R7) | -0.403
61 | ARIH2_O95376_183_DGVGVGVSCMAQDCPLR (UniProt O95376) | -0.232
62 | ARHGEF18_Q6ZSZ5_105_LSLDASAVDEEPCLPR (UniProt Q6ZSZ5) | 0.182
63 | ARID4A_P29374_356_LVYHQGGCDNIDSGAVWK (UniProt P29374) | 0.0919
64 | ARHGEF11_O15085_866_FQLFMQEAESHPQCR (UniProt O15085) | 0.247
65 | ARHGAP19_Q14CB8_359_VDSCPHQEETQHHTEEALR (UniProt Q14CB8) | -0.0273
66 | ARID2_Q68CP9_1634_KPGQNFMCLWQSCK (UniProt Q68CP9) | -0.152
67 | ARPC1A_Q92747_13_SLHQFLLEPITCHAWNR (UniProt Q92747) | 0.579
68 | ARHGEF2_Q92974_282_TGMLEELHLEPGVVQGLFPCVDELSDIHTR (UniProt Q92974) | -0.0247
69 | ARID1A_O14497_2043_EEEQDQGVSCNK (UniProt O14497) | 0.698
70 | APRT_P07741_153_LQAEVLECVSLVELTSLK (UniProt P07741) | 0.125
71 | ARHGAP27_Q6ZUM4_830_MLFQHLCR (UniProt Q6ZUM4) | 0.0467
72 | ARHGEF10_O15013_1335_ASSALVVCGGQGHR (UniProt O15013) | -0.402
73 | ARPC3_O15145_162_WWTCFVK (UniProt O15145) | 0.139
74 | ARHGEF7_Q14155_349_VGGCFLNLMPQMK (UniProt Q14155) | 0.294
75 | ARHGAP35_Q9NRY4_663_LPVNSFQTPTFQPHGCLCLYNSK (UniProt Q9NRY4) | -0.0768
76 | APPL1_Q9UKG1_616_ICDSVGLAK (UniProt Q9UKG1) | 0.104
77 | ARPC1B_O15143_342_CSQFCTTGMDGGMSIWDVK (UniProt O15143) | 0.0275
78 | ARMT1_Q9H993_159_EQNFYGSQESIIALCTHLQQLIR (UniProt Q9H993) | 0.254
